Publication doi:10.1101/2022.01.17.476632
No constants are given. Whether binding was seen depends on the method and setting. Binding seen in cells or lysates may run through a third protein. Some binding calls cover weakened binding; strength is not graded here.

Amino acid sequences for entries named in this document (tags omitted).
UniProt Q9Y243: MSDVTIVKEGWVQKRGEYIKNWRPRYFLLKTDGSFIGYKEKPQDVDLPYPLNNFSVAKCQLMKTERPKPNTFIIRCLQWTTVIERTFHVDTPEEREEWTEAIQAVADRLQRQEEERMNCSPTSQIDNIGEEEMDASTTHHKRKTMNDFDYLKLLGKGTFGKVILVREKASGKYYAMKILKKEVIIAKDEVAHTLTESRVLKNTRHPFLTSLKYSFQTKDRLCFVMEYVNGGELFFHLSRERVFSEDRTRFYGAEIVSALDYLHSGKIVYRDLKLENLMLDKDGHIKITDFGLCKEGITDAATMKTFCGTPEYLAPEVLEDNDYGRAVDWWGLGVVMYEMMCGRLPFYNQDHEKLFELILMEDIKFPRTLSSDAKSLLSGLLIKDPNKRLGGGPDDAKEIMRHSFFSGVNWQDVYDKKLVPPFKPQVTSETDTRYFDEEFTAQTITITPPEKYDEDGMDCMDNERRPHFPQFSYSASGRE

Target: T1, TANK-binding kinase 1 (TBK1) (human (endogenous in MDA-MB-231)) (UniProt Q9UHD2)
T1 sequence: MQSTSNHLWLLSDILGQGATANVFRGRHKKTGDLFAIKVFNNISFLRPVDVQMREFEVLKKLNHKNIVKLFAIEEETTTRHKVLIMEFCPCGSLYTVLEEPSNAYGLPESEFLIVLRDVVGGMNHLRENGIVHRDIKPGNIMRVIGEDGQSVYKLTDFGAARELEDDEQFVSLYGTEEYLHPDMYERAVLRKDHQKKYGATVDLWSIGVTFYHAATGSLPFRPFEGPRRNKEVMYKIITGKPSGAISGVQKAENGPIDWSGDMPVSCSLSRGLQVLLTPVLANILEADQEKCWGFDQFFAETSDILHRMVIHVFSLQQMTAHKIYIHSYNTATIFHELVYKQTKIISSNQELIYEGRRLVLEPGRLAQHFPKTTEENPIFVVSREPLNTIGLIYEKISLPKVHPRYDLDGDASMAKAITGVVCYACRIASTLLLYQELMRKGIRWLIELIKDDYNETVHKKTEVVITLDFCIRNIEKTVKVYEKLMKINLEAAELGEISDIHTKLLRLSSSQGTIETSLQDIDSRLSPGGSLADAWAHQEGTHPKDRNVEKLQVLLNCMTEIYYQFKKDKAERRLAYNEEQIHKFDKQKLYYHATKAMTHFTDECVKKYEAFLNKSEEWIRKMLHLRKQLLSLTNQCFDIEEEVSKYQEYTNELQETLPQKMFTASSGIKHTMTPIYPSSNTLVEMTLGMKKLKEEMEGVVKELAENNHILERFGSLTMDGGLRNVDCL
Assay: co-IP

- binding: binds
Substance: AKT3 (from UniProt Q9Y243 1-479) (enzyme)
